Measurements reported in PubChem BioAssay AID504808 (Drosophila RNAi Screening Center, 2011)
Purpose: 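Chromatin factors that keep E2F targets switched off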 (primary screen). Cells: Drosophila S2 cells. Knock-down reagent: long dsRNA against Drosophila genes. Read-out: 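Firefly luciferase driven by E2F sites, normalised to Renilla luciferase on the same minimal promoter, measured by plate reader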. Direction: E2F firefly: higher = more E2F reporter activity; Renilla normaliser: higher = more normaliser reporter signal. Hit rule: 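a knock-down counted as active when the firefly/Renilla E2F signal rose above 50%, a threshold chosen arbitrarily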.
The screen tested about 21,000 reagents; below is an unselected part of those with a known target gene and a result. Of all reagents, 18 (0.084%) are marked active. 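Raw counts without plate normalisation, one of two replicates; the ratio scores behind the calls were not deposited.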 The numbers tell different reagents against one gene apart. A plus sign joins genes that one reagent is predicted to hit. Reagent sequences are not shown. Not stated in the record: the amount of reagent, the time to read-out.

| target gene | reagent | E2F firefly, rep 1 | Renilla normaliser, rep 1 | activity call |
| --- | --- | --- | --- | --- |
| eIF4E3 (GeneID 38923) | 1 | 77523 | 3395 | inactive |
| Tsp42Ep (GeneID 35626) | 1 | 81425 | 3606 | inactive |
| CG30371 (GeneID 35806) | 1 | 1.49e5 | 5343 | inactive |
| CG31643 (GeneID 318867) | 1 | 1.26e5 | 5652 | inactive |
| CG17768 + LSm-4 | 1 | 1.53e5 | 5387 | inactive |
| CG9008 (GeneID 34779) | 1 | 85049 | 3606 | inactive |
| CG14450 (GeneID 40490) | 1 | 1.49e5 | 6981 | inactive |
| CG14856 (GeneID 41790) | 1 | 1.08e5 | 5808 | inactive |
| slpr (GeneID 44111) | 1 | 8407 | 716 | inactive |
| CG34426 (GeneID 5740622) | 1 | 1.02e5 | 4377 | inactive |
| Gprk1 (GeneID 3355013) | 1 | 77919 | 2420 | inactive |
| Gprk1 (GeneID 3355013) | 2 | 87289 | 2910 | inactive |
| CG30419 (GeneID 37879) | 1 | 1.14e5 | 4693 | inactive |
| CG30419 (GeneID 37879) | 2 | 1.07e5 | 4211 | inactive |
| CG10164 (GeneID 42777) | 1 | 55271 | 3208 | inactive |
| CCAP-R (GeneID 2768688) | 1 | 1.15e5 | 6268 | inactive |
| CCAP-R (GeneID 2768688) | 2 | 1.04e5 | 5907 | inactive |
| uncNacbeta (GeneID 33232) | 1 | 1.63e5 | 5702 | inactive |
| CG1801 (GeneID 33104) | 1 | 1.30e5 | 5772 | inactive |
| Shrm (GeneID 36592) | 1 | 98609 | 4932 | inactive |
| Shrm (GeneID 36592) | 2 | 97026 | 3983 | inactive |
| Shrm (GeneID 36592) | 3 | 3057 | 211 | inactive |
| CG31948 (GeneID 326178) | 1 | 1.73e5 | 6785 | inactive |
| CG32436 (GeneID 40362) | 1 | 1.23e5 | 5604 | inactive |
| CG32436 (GeneID 40362) | 2 | 1.32e5 | 6563 | inactive |
| CG17807 (GeneID 37585) | 1 | 86052 | 3564 | inactive |
| kni (GeneID 40287) | 1 | 1.41e5 | 6135 | inactive |
| emei (GeneID 39250) | 1 | 1.06e5 | 5431 | inactive |
| Creld (GeneID 33166) | 1 | 1.48e5 | 4666 | inactive |
| mRpL2 (GeneID 39253) | 1 | 1.03e5 | 6962 | inactive |
| qvr (GeneID 2768718) | 1 | 1.37e5 | 5383 | inactive |
| CG33116 (GeneID 326259) | 1 | 82686 | 3810 | inactive |
| Ir21a (GeneID 33157) | 1 | 1.51e5 | 4977 | inactive |
| Nup58 (GeneID 42342) | 1 | 1.34e5 | 6393 | inactive |

In a second layout: results already given.
target gene,reagent,"E2F firefly, rep 1","Renilla normaliser, rep 1",activity call
Gprk1 (GeneID 3355013),1,77919,2420,inactive
Gprk1 (GeneID 3355013),2,87289,2910,inactive
CG30419 (GeneID 37879),1,1.14e5,4693,inactive
